This note sets out measurements from paper PMC10163288.

To fix the notation:
B1: il10ra_site1_sap_16_mot_HHH_b1_04573_000000273_0001_43_57_H_._HHH_b1_02099_af2_0001_0000700024_0000001_0_0001 (protein)
chain: SSSSDSHELAERAVKELIELVEEGNPEEAEKLAEKVEEELKELGDPLAARVIKWAIEVQRSSSSS
B2: il10ra_site1_sap_33_mot_HHH_b2_02876_000000208_0001_1_16_H_._HHH_b2_05821_af2_0001_0000300021_0000002_0_0001_af2pred_dldesign_0_af2pred (protein)
chain: SSSSSDVEEVARRLRELLRAGRFDEADALLAEATAELEAKGDADAVRLLRVSYEIQKASISSSSS
B3: il10ra_site1_sap_37_mot_HHH_b2_02900_000000189_0001_39_52_H_._HHH_b2_02951_af2_0001_0000200016_0000001_0_0001_af2pred_0001 (protein)
chain: SSSSDEEAEEIEEELKELLKRGDLEEARELLKRLLELALELKNPRLLRAAKEILIAIKRLSSSSS
B4: il10ra_site1_sap_21_mot_HHH_b2_08186_000000021_0001_43_56_H_._HHH_b2_02413_af2_0001_0000100002_0000001_0_0001_af2pred_dldesign_0_af2pred (protein)
chain: SSSSDPEAEFDRLEAELKAAIAAGKREEATALHLRLAEIARATDDPAWVARLRELAREIFSSSSS
B5: il10ra_site1_sap_32_mot_HHH_b1_05088_af2_000000046_0001_20_36_H_._HHH_b2_04743_0001_0000100005_0000002_0_0001_af2pred_0001 (protein)
chain: SSSSTELAQEVLELLRRILELEREGNPEEAKELAEEAEELARRGNSLNLEAQVKFLEKLLNSSSS
B6: il10ra_site1_normal_mot_2c1a291787c6f40772924d4e9068d803_0001_af2_000000222_0001_34_48_H_._HHH_b1_04090_0001_0000200015_0000001_0_af2pred_0001 (protein)
chain: SSSSSSEEELFHLLIKAYLLARRDPEKAQEVLEEAIEIAEEEGDRLARTALELLLRLIENSSSSS
B7: il10ra_site1_sap_13_mot_HHH_b1_00638_000000236_0001_22_38_H_._HHH_b1_02696_0001_0000200005_0000001_0_0001 (protein)
chain: SSSSSSEELYRLIRRANELLKEGNPEEAREVLEEAKELAEQENNWTAKIQLEFIEKELESSSSSS
B8: il10ra_site1_normal_mot_b26a303360aa2756ef5b79665ce52f45_0001_000000179_0001_1_11_H_._HHH_b1_06404_af2_0001_0000300005_0000002_0 (protein)
chain: SSSSDEETYELARRAAELSSRYEEEGDERLREEVEELLEEARELGNPVVEFSIEHALRDISSSSS
B9: il10ra_site1_sap_18_mot_HHH_b1_06348_000000162_0001_1_15_H_._HHH_b1_00849_af2_0001_0000300003_0000001_0_0001_af2pred_0001 (protein)
chain: SSSSDEEVVELLFEALELLARGNPEEAHKLVEEAEELAKELGDEELRRAVEILLRYIRLTGSSSS
B10: il10ra_site1_sap_19_mot_HHH_b1_03314_af2_000000278_0001_42_55_H_._HHH_b1_06606_0001_0000500031_0000001_0_0001_af2pred_0001 (protein)
chain: SSSSSSDRARRSVEILLWAAETLDDPRLIELSLRLARQVAEAANDPELEREVERVEEELSSSSSS
B11: il10ra_site1_normal_mot_0750aae41c39e4229e2ea8fa354cc919_0001_1_000000144_0001_37_51_H_._HHH_b2_06980_0001_0000300019_0000001_0_af2pred_0001 (protein)
chain: SSSSDAEVAVRFFARLDRFIRKLGDPEAVEESAEAAKRALKSAGDEEALEELERVLRELLSSSSS
B12: il10ra_site1_normal_mot_fda5df8c19bda1ddfcc41857df859eb0_0001_1_000000120_0001_35_49_H_._HEEHE_1459_0001_0000300017_0000001_0_af2pred_0001 (protein)
chain: DREERAEISVRILAELAGVPEFEVEVENNSVEVTLNGDDEAVRRAEISIEAAARLLNIEISVETL
B13: il10ra_site1_sap_22_mot_HHH_b1_05056_000000217_0001_1_20_H_._HHH_b2_01486_0001_0000300015_0000001_0_0001_af2pred_0001 (protein)
chain: SSSSSITQEVMKILREVVELAREGDEEEAEKLLEEAEELAERANNEILKFIVEFLKEHLNSSSSS
B14: il10ra_site1_normal_mot_HHH_b2_00033_000000036_0001_41_54_H_._HHH_b1_00748_0001_0000200008_0000001_0 (protein)
chain: SSSSDAAELAAAASRLAIRLNDPELFQRLWELAKRIAEEGDPELREELQEIVEELEELISSSSSS
B15: il10ra_site1_normal_mot_HHH_b2_00134_af2_000000004_0001_38_52_H_._d2a7ab61c71473013b01aa2592132fbc_0001_1_0001_0000300016_0000002_0 (protein)
chain: TEQVRKSIKRQLEQGVPPETVLEAVELLLLQRGLSPEEILEIILEALELLGDPELSEEVREKLEK
B16: il10ra_site1_sap_36_mot_HHH_b2_03434_000000017_0001_1_19_H_._HHH_b1_05522_af2_0001_0000300021_0000001_0_0001_af2pred_0001 (protein)
chain: SSSSSEEEKQIRAAKLLLKWALEINNPEAVETALASLKRLAELLNDEEAQELVEEVEKELSSSSS
B17: il10ra_site1_normal_mot_HHH_b1_01874_000000035_0001_1_20_H_._HHH_b2_03159_0001_0000300014_0000001_0 (protein)
chain: SSSSSDEAEEAYRLLREALELLAEGNPEEAERVVEEALEVAEEGGNDVFRFSIELLKRQVSSSSS
B18: il10ra_site1_normal_mot_b26a303360aa2756ef5b79665ce52f45_0001_000000179_0001_1_11_H_._HHH_b2_02191_af2_0001_0000600025_0000001_0_af2pred_0001 (protein)
chain: SSSSSDRAELSEEAQRILRKARKIEDPEEVEELLEQAKKLAEEANNLVLRVAIEFAAKLDSSSSS
B19: il10ra_site1_normal_mot_HHH_b1_02004_000000220_0001_1_19_H_._HHH_b2_04613_af2_0001_0000500033_0000001_0 (protein)
chain: SSSSTDEEFERVKELVEEAAELIENGNPEEAEKLLEEAERLAEESNNEALRFSVEHALRLLSSSS
B20: il10ra_site1_sap_23_mot_d12dd14985caa292ad795d5b907f3ec3_0001_1_af2_000000000_0001_1_12_H_._32ed9a5367f3ec2ad68db539d97dae7e_0001_0001_0000600009_0000001_0_0001 (protein)
chain: SSSSSEEEKRIKELIEEAEELLENGDPREAVRVLAEAVRAAFHAKNRELLRELWEIIKKVDSSSS
B21: il10ra_site1_normal_mot_HHH_b2_01310_000000089_0001_41_55_H_._HHH_b2_04296_af2_0001_0000100005_0000002_0_af2pred_0001 (protein)
chain: SSSSSSELERLVEEIEELLEEGDDEEALRLLRELVRLAFELGDQEVLELALELAELLKELSSSSS
B22: il10ra_site1_normal_mot_HHH_b2_08186_000000021_0001_43_56_H_._HHH_b1_07279_0001_0000600053_0000001_0 (protein)
chain: SSSSSDEEEVRELLEEAEELARRGNPREALRVLLRALRIIFEAQNPELLQELWEVLKRVASSSSS
B23: il10ra_site1_sap_19_mot_HHH_b2_08144_af2_000000046_0001_38_52_H_._9bad734bde242972d24fe2fb55b42ac3_0001_0001_0000100001_0000002_0_0001 (protein)
chain: SSSSDREEIEELIKEIEELIEEGDQEEALQLLWELAKIVAELNDEEALERVQELERLIFRSSSSS
B24: il10ra_site1_sap_10_mot_HHH_b1_07571_000000144_0001_42_58_H_._HHH_b2_02979_0001_0000100010_0000002_0_0001 (protein)
chain: SSSSSSEIVRLAQELVRLAFEKGDEEALQAVWEAIVAWARGELSEEEVKELLEEAEELLSSSSSS

The list shows a part of the results.

In the experiment the target is il10ra, Q13651. The experiment is described as follows: yeast display titration.
As for B1, the “apparent Kd” value is “inactive: no binding seen”. The entry for B2 is “inactive: no binding seen”. The same measure for B3: “inactive: no binding seen”.

Take B4: the “apparent Kd” value is “inactive: no binding seen”. For B5, the “apparent Kd” value is “inactive: no binding seen”. The same measure for B6: “inactive: no binding seen”. For the molecule B7, the “apparent Kd” value is “inactive: no binding seen”.

In the case of B8, the apparent Kd was inactive: > 657 nM. For the molecule B9, the “apparent Kd” value was “inactive: no binding seen”.

Turning to B10, the “apparent Kd” value was “inactive: no binding seen”. The entry for B11 is “inactive: no binding seen”; for B12 it is “inactive: no binding seen”. Take B13: the “apparent Kd” value is “inactive: no binding seen”. B14: the “apparent Kd” value was “inactive: no binding seen”. The same measure for B15: “inactive: no binding seen”; for B16: “inactive: no binding seen”; for B17: “inactive: no binding seen”. The same measure for B18: “inactive: no binding seen”. B19: the “apparent Kd” value was “inactive: no binding seen”. The entry for B20 is “inactive: no binding seen”. The same measure for B21: “inactive: no binding seen”. Regarding B22, the “apparent Kd” value is “inactive: no binding seen”. The entry for B23 is “inactive: no binding seen”. The same measure for B24: “inactive: no binding seen”.

A word on the apparent Kd: it is the concentration giving half-maximal binding under the conditions of the assay.
